These are yes or no findings as the source states them, for the method shown. Binding seen in cells or lysates may run through a third protein. Binding can be weak; no strength is given.
Target: Brain and muscle Arnt-like (BMAL)1 protein (rat (endogenous in primary adipocytes of Wistar rats)) (UniProt Q9EPW1)
Test: co-IP; lysate (1 mg/mL protein) of primary adipocytes from epididymal adipose tissue of E-SED, L-SED, E-EX and L-EX rats incubated with antibodies against BMAL1; immunocomplexes recovered on Dynabeads Protein G; blots with antibodies against each partner

Sequences of proteins named here, by UniProt entry; tags and fusion partners are left off.
UniProt Q9EPW1: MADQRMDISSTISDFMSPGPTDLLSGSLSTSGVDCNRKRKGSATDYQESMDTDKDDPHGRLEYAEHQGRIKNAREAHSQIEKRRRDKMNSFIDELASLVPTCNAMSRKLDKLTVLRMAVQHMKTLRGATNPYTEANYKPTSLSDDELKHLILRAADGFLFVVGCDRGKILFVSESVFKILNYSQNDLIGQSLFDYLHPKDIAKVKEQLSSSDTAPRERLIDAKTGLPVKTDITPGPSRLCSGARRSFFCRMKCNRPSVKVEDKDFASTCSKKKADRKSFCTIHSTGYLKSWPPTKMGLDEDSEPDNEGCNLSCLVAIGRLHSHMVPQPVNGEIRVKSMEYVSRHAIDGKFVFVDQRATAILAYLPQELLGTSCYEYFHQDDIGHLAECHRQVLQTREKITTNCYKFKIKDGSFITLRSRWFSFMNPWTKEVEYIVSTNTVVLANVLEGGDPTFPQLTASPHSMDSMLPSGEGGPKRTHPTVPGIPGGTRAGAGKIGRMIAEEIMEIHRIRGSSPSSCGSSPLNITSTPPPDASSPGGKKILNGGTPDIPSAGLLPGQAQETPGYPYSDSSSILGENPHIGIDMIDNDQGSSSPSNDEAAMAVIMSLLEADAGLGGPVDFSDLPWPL

Substance: hormone-sensitive lipase (from UniProt P15304-2) (enzyme)
- binding: binds

Reference: article PMC7554872
